For 24 compounds, survivor count and T/C results are on record in PubChem BioAssay AID330 (DTP/NCI, 2004).

This test relates to P388 leukemia ip, CD2F1 mice, survival T/C. The test can be described thus: NCI In Vivo Anticancer Drug Screen. Data for tumor model P388 Leukemia (intraperitoneal) in CD2F1 (CDF1) mice. The note with it: T/C endpoint: median survival time, higher T/C = longer survival.
The mark [1] stands for this setting: dose: 50.0 mg/kg/injection, schedule: Q01DX009 (ip), vehicle: saline with Tween-80.
Setting [2] is: dose: 200.0 mg/kg/injection, schedule: Q01DX005 (ip), vehicle: Klucel (hydroxypropylcellulose) (HPC).
Setting [3] is: dose: 240.0 mg/kg/injection, schedule: Q01DX005 (ip), vehicle: Klucel (hydroxypropylcellulose) (HPC).
Setting [4] is: dose: 200.0 mg/kg/injection, schedule: Q01DX009 (ip), vehicle: saline with Tween-80.
[5] abbreviates: dose: 200.0 mg/kg/injection, schedule: Q01DX009 (ip), vehicle: Klucel (hydroxypropylcellulose) (HPC).
Setting [6] is: dose: 200.0 mg/kg/injection, schedule: Q01DX005 (ip), vehicle: saline with Tween-80.

The list is a part of this screen's results and no random one: it is rich in T/C values a quarter to a half above the control, in often repeated tests (any T/C) and in doses without a T/C. Other doses and runs of a compound stand elsewhere. T/C is the treated group as % of the vehicle group. Some entries give survivors of the animals treated and no T/C: the source holds a T/C of zero for them, seemingly a mark for toxic or unscored doses. Some survivor counts are full or nearly so, which does not show that the dose was tolerated: the source hardly ever lists a survival T/C far under the control, and the zero likely stands for such cases as well. Survivors were counted at the toxicity check, usually on the fifth day, unless a day is given; later deaths do not show. Schedule codes are those of the source, read here as Q, the interval in days (D) or hours (H), X, the number of doses. Some molecules as drawn cover several salts, stereoisomers or complexes of the source; a dose is that of the sample tested. For survival time, the PubChem record calls one and a half times the control and up active, and a quarter to a half above the control has no call in these data; cut-offs in other NCI protocols can differ.

For `CN(N=O)C(N)=O`, the survivor count is recorded as 6 of 6 (dose: 12.5 mg/kg/injection, schedule: Q01DX009 (ip), vehicle: saline); 5 of 6 (dose: 25.0 mg/kg/injection, schedule: Q01DX009 (ip), vehicle: saline); 6 of 6 under setting [1]; 6 of 6 (dose: 50.0 mg/kg/injection, schedule: Q01DX009 (ip), vehicle: saline). For the same compound, the T/C runs as follows: (dose: 12.5 mg/kg/injection, schedule: Q04DX003 (ip), vehicle: saline with Tween-80) 127 % of control; (dose: 16.5 mg/kg/injection, schedule: Q04DX003 (ip), vehicle: saline with Tween-80) 145 % of control; (dose: 20.0 mg/kg/injection, schedule: Q04DX003 (ip), vehicle: saline with Tween-80) 147 % of control; (dose: 25.0 mg/kg/injection, schedule: Q04DX003 (ip), vehicle: saline with Tween-80) 136 % of control.
Regarding `COC(=O)NC1=Nc2ccc(Cl)cc2NS1`, the survivor count is, setting by setting: (dose: 100.0 mg/kg/injection, schedule: Q01DX005 (ip), vehicle: Klucel (hydroxypropylcellulose) (HPC)) 3 of 5; under setting [2], 0 of 5.
For the compound `CCOC(=O)C1CC(=O)C1C(=O)OCC` (configuration not stated), the survivor count under setting [1] is on record as 6 of 6.
For `C=C=CN1C(C)=CC(=C2C(=O)c3ccccc3C2=O)C=C1C`, under setting [2], the T/C was 127 % of control. Also, under setting [3], the survivor count is 1 of 6.
For `O=C(O)c1ccccc1N=Nc1ccc(N(CCCl)CCCl)cc1`, the T/C by setting is: (dose: 6.25 mg/kg/injection, schedule: Q01DX009 (ip), vehicle: saline with Tween-80) 140 % of control; (dose: 6.25 mg/kg/injection, schedule: Q04DX003 (ip), vehicle: Klucel (hydroxypropylcellulose) (HPC)) 137 % of control; (dose: 12.5 mg/kg/injection, schedule: Q04DX003 (ip), vehicle: Klucel (hydroxypropylcellulose) (HPC)) 147 % of control. For the same compound, the survivor count (dose: 25.0 mg/kg/injection, schedule: Q04DX003 (ip), vehicle: Klucel (hydroxypropylcellulose) (HPC)) is reported as 6 of 6; the survivor count (dose: 50.0 mg/kg/injection, schedule: Q04DX003 (ip), vehicle: Klucel (hydroxypropylcellulose) (HPC)) was 0 of 6; the survivor count (dose: 100.0 mg/kg/injection, schedule: Q01DX009 (ip), vehicle: saline with Tween-80) was 6 of 6; the survivor count (dose: 100.0 mg/kg/injection, schedule: Q04DX003 (ip), vehicle: Klucel (hydroxypropylcellulose) (HPC)) is given as 3 of 6; the survivor count under setting [4] is listed as 6 of 6; the survivor count (dose: 200.0 mg/kg/injection, schedule: Q04DX003 (ip), vehicle: Klucel (hydroxypropylcellulose) (HPC)) was 0 of 6. For the setting “dose: 400.0 mg/kg/injection, schedule: Q04DX003 (ip), vehicle: Klucel (hydroxypropylcellulose) (HPC)”, the survivor count is on record as 0 of 6.
Turning to `O=S1(=O)CCN(Cc2ccco2)CC1`, the survivor count under setting [5] is 3 of 6.
On to `N=c1c2c(C(N)=O)cn(C3OC(CO)C(O)C3O)c2ncn1N` (configuration not stated), for which the T/C (dose: 6.25 mg/kg/injection, schedule: Q01DX005 (ip), vehicle: water) was 131 % of control; the T/C (dose: 12.5 mg/kg/injection, schedule: Q01DX005 (ip), vehicle: water) is 132 % of control; the T/C (dose: 25.0 mg/kg/injection, schedule: Q01DX005 (ip), vehicle: water) is 142 % of control. For the same compound, where the note is “dose: 100.0 mg/kg/injection, schedule: Q01DX005 (ip), vehicle: water”, the survivor count was 6 of 6.
`O=C(OC1C(O)OC2COC(=O)c3cc(O)c(O)c(O)c3-c3c(cc(O)c(O)c3O)C(=O)OC2C1O)c1cc(O)c(O)c(O)c1` (configuration not stated): the survivor count (dose: 30.0 mg/kg/injection, schedule: Q01DX009 (ip), vehicle: saline with Tween-80) was 6 of 6.
For the compound `COc1ccc(-n2cnc3c(cnn3C)c2=O)cc1`, the survivor count under setting [3] is listed as 5 of 6.
As for `O=c1[nH]c2ccccc2nc1Cl`, the survivor count under setting [4] is 5 of 6.
Regarding `COC(=O)C1=NOC2C(=O)N(c3ccccc3)C(=O)C12` (configuration not stated), the survivor count under setting [6] is reported as 0 of 6.
As to `Nc1nc[nH]c1-c1noc(=O)[nH]1`, the survivor count (dose: 200.0 mg/kg/injection, schedule: Q01DX009 (ip), vehicle: saline) is given as 0 of 6.
`CC1(O)c2ccccc2C(C)(O)c2c1ccc1ccccc21` (configuration not stated): the survivor count under setting [6] was 6 of 6.
Take `CCCCSC1=CC(=O)c2c(O)ccc(O)c2C1=O`: the survivor count was 0 of 6 (dose: 100.0 mg/kg/injection, schedule: Q04DX002 (ip), vehicle: DMSO); 0 of 6 (dose: 200.0 mg/kg/injection, schedule: Q04DX002 (ip), vehicle: DMSO); 0 of 5 (dose: 400.0 mg/kg/injection, schedule: Q04DX002 (ip), vehicle: DMSO).
Regarding `CCN(CC)CC(O)c1c(OC)ccc2ccccc12` (configuration not stated), the survivor count is 0 of 5 (dose: 100.0 mg/kg/injection, schedule: Q01DX005 (ip), vehicle: saline) and 0 of 5 (dose: 200.0 mg/kg/injection, schedule: Q01DX005 (ip), vehicle: saline).
`C=CCOc1cc2c(cc1C(C)c1ccc(OCC)cc1)OCO2` (configuration not stated): the T/C (dose: 400.0 mg/kg/injection, schedule: Q01DX005 (ip), vehicle: saline with Tween-80) was 141 % of control.
In the case of `CC(=O)NC1=C(Cl)C(=O)c2ccccc2C1=O`, the survivor count reads like this: (dose: 12.5 mg/kg/injection, schedule: Q01DX009 (ip), vehicle: Klucel (hydroxypropylcellulose) (HPC)) 6 of 6; (dose: 25.0 mg/kg/injection, schedule: Q01DX009 (ip), vehicle: Klucel (hydroxypropylcellulose) (HPC)) 6 of 6; (dose: 50.0 mg/kg/injection, schedule: Q01DX009 (ip), vehicle: Klucel (hydroxypropylcellulose) (HPC)) 0 of 6.
In the case of `Cc1cc([N+](=O)[O-])ccc1N=Nc1ccc(O)c(C(=O)O)c1`, the survivor count under setting [6] was 0 of 5.
Take `COCN(Cc1ccccc1)C[Si](C)(C)C`: the survivor count (dose: 400.0 mg/kg/injection, schedule: Q01DX001 (ip), vehicle: saline with Tween-80) is 3 of 6.
In the case of `C/C1=C/C(C)C(O)C(O)C(=O)C2(C)CNC3=C(O2)C(=O)c2c(cc(C)c(O)c2C1=O)C3=O` (configuration not stated), the T/C was 132 % of control (dose: 2.0 mg/kg/injection, schedule: Q01DX009 (ip), vehicle: distilled water + Tween-80) and 137 % of control (dose: 4.0 mg/kg/injection, schedule: Q01DX009 (ip), vehicle: distilled water + Tween-80).
With `Cc1ccc2nc(NC(=S)NCCCCCCNC(=S)Nc3ccc4cc(C)ccc4n3)ccc2c1`, the survivor count under setting [5] is 6 of 6.
Same read-out and setting: for `O=C(NCc1ccc(Cl)cc1)OCc1c2ccccc2cc2ccccc12` the value was 6 of 6.
As to `O=C1OC(c2ccccc2)=N/C1=C\c1ccc(Br)cc1`, for the setting “dose: 50.0 mg/kg/injection, schedule: Q01DX005 (ip), vehicle: Klucel (hydroxypropylcellulose) (HPC)”, the survivor count is 5 of 5.
Regarding `CC1(C)C=Cc2cc3c(cc2O1)OC[C@H]1c2cc4c(cc2O[C@@H]31)OCO4`, the survivor count reads like this: (dose: 100.0 mg/kg/injection, schedule: Q04DX002 (ip), vehicle: Klucel (hydroxypropylcellulose) (HPC)) 6 of 6; (dose: 200.0 mg/kg/injection, schedule: Q04DX002 (ip), vehicle: Klucel (hydroxypropylcellulose) (HPC)) 6 of 6.
